Reference: PubChem BioAssay AID504784 (Drosophila RNAi Screening Center, 2011)

Assay: 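Genome-wide knock-down for genes giving too much or too little stored lipid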 (primary screen)
System: Drosophila Kc167 embryonic cells
Reagents: long dsRNA against Drosophila genes, about 250 ng dsRNA per well
Timing: 4 days
Conditions: cells fed 400 µM oleic acid bound to BSA
Measurement: 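Microscope images give a droplet-to-nucleus area ratio, taken as log and converted to a screen-wide B-score; higher values mean greater lipid storage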
Scale: droplet/nuclear area B-score: higher = more stored lipid (overstorage)
The screen tested about 17,000 reagents; this is a random part of those that have a named target and a result. 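Each column is one replicate's B-score; the combined score over replicates was not deposited, so single values may mislead.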 Reagents against one gene are numbered here. Names joined by + are all predicted targets of the reagent. Not all columns of the deposit are shown. Reagent sequences are not shown.

predicted target,reagent no.,"droplet/nuclear area B-score, replicate 1","droplet/nuclear area B-score, replicate 2"
CG1636,1,0.422,1.33
Aatf (Apoptosis antagonizing transcription factor),1,-0.814,-0.647
CG12828,1,-0.745,0.779
Hrb87F (Heterogeneous nuclear ribonucleoprotein at 87F),1,-1.73,15.9
Usp12-46 (Ubiquitin-specific protease 12/46),1,3.09,-0.893
prd1 (pruning defect 1),1,-0.132,-0.0884
mthl12 (methuselah-like 12),1,-1.34,-1.8
CG15390,1,0.0298,-0.0443
CG34175,1,-1.41,-0.0319
CG30413,1,-1.09,0.701
sima (similar),1,-0.00581,-0.121
sima (similar),2,-0.0491,-0.611
CG11694,1,0.949,-0.618
Spt6,1,-3.01,-5.14
CG3862,1,3.82,0.227
Megf8 (Multiple EGF like domains 8),1,-0.545,0.216
CG15747,1,0.0254,-1.01
odd (odd skipped),1,0.799,0.649
odd (odd skipped),2,-0.902,-0.277
c(3)G (crossover suppressor on 3 of Gowen),1,-1.54,1.92
Magi,1,1.26,-1.61
Magi,2,-1.48,0.184
CG13306,1,0.441,-1.07
Hasp (Hig-anchoring scaffold protein),1,0.614,1.33
CG14518,1,1.22,-1.06
Ilp5 (Insulin-like peptide 5),1,0.247,-2.25
CG12460 (retired record),1,1.02,1.37
CG8159,1,-0.394,-1.58
PlexB (Plexin B),1,0.283,0.455
His3.3B (Histone H3.3B),1,-0.232,-1.61
His3.3B (Histone H3.3B),2,1.45,0.683
CG14957,1,-0.475,-0.332
BuGZ (Bub3 interacting GLEBS and Zinc finger domain protein),1,-2.56,-1.1
BuGZ (Bub3 interacting GLEBS and Zinc finger domain protein),2,-0.204,-0.0156
CG8419,1,-0.54,0.0441
mira (miranda),1,0.945,-2.05
nompB (no mechanoreceptor potential B),1,-1.55,0.268
nompB (no mechanoreceptor potential B),2,1.73,0.158
armi (armitage),1,-0.442,0.0718
CG13991,1,2.06,-2.02
CG4377,1,0.609,-0.274
CG1142,1,0.625,-0.569
Patj,1,-0.866,-1.43
CG5805,1,0.81,-0.549
Plod (procollagen lysyl hydroxylase),1,-1.31,1.21
Plod (procollagen lysyl hydroxylase),2,0.52,-0.18
CG14881,1,-0.757,-2.49
CG10916,1,-1.57,
CG2528,1,0.861,1.83
CG16986,1,-0.0289,-0.34
Grp170 (Grp170 co-chaperone),1,2.59,0.685
Ist1,1,0.218,-3.35
CG9733,1,1.83,0.544
CG1979,1,-0.0259,0.00318
CG17826,1,-0.885,-0.125
"SmydA-6 (SET and MYND domain containing, arthropod-specific, member 6)",1,-0.0968,-0.171
CG6125,1,0.0109,-0.57
scra (scraps),1,0.34,
CG30432,1,1.9,2.23
CG13771,1,0.0842,-1.2
Su(H) (Suppressor of Hairless),1,-1.81,-0.0835
CG34260 + cmpy,1,1.15,0.751
nanos,1,0.853,
CG11570,1,0.153,0.0934
CG17698,1,-0.00614,0.212
CG11619,1,-1.22,-2.3
ND-18 (NADH dehydrogenase (ubiquinone) 18 kDa subunit),1,-0.188,-0.0208
mav (maverick),1,1.18,-0.75

Continued (12 carried over from the part before).
predicted target,reagent no.,"droplet/nuclear area B-score, replicate 1","droplet/nuclear area B-score, replicate 2"
CG6125,1,0.0109,-0.57
scra (scraps),1,0.34,
CG30432,1,1.9,2.23
CG13771,1,0.0842,-1.2
Su(H) (Suppressor of Hairless),1,-1.81,-0.0835
CG34260 + cmpy,1,1.15,0.751
nanos,1,0.853,
CG11570,1,0.153,0.0934
CG17698,1,-0.00614,0.212
CG11619,1,-1.22,-2.3
ND-18 (NADH dehydrogenase (ubiquinone) 18 kDa subunit),1,-0.188,-0.0208
mav (maverick),1,1.18,-0.75
Sema1a (Semaphorin 1a),1,-0.359,-0.391
CG30385,1,-1.31,-0.877
ItgaPS5 (Integrin alphaPS5 subunit),1,0.0203,-0.0519
l(1)G0196 (lethal (1) G0196),1,-0.788,-0.537
l(1)G0196 (lethal (1) G0196),2,-1.81,-0.859
l(1)G0196 (lethal (1) G0196),3,0.0174,2.11
"Rgk2 (Rad, Gem/Kir family member 2)",1,-0.853,0.54
"Rgk2 (Rad, Gem/Kir family member 2)",2,-1.28,0.00208
CG13958 (retired record),1,-0.475,-0.3
CG6294 + CG6299 + CG15642,1,0.226,0.866
Gr59c (Gustatory receptor 59c),1,1.51,1.58
CG18132,1,-0.123,-1.69
hook,1,0.0641,0.524
CG34331,1,0.552,0.541
P32,1,1.67,0.379
CG17768 + LSm-4,1,1.02,-1.22
Cad86C (Cadherin 86C),1,1.62,0.0901
Cad86C (Cadherin 86C),2,-0.775,-1.78
Tpi (Triose phosphate isomerase),1,-1.09,-0.681
fidipidine,1,-0.0707,-0.951
CG10581,1,-0.588,0.988
CG5897,1,-2.28,-0.0508
CG5323,1,0.972,0.611
CG12009,1,0.962,0.899
mib1 (mind bomb 1),1,-1.02,-0.583
CG12289,1,0.734,0.278
Odc2 (Ornithine decarboxylase 2),1,-0.0394,-2.8
Trc8 (TRC8 ring finger protein),1,-0.0212,3.28
CG13405,1,-0.0376,1.36
CG14244,1,0.8,-0.996
CG5196,1,0.951,0.705
CycH (Cyclin H),1,-0.151,-0.266
CycH (Cyclin H),2,-0.66,0.681
Hsc70-1 (Heat shock protein 70 cognate 1),1,5,6.92
Oatp58Dc (Organic anion transporting polypeptide 58Dc),1,0.606,1.14
Got2 (Glutamate oxaloacetate transaminase 2),1,-0.1,-0.746
dib (disembodied),1,-0.646,2.53
